Test results: publication PMC12264102

Biological target: T1, OTUD1 (bait of the IP coupled with MS) (UniProt Q5VV17)
T1 sequence: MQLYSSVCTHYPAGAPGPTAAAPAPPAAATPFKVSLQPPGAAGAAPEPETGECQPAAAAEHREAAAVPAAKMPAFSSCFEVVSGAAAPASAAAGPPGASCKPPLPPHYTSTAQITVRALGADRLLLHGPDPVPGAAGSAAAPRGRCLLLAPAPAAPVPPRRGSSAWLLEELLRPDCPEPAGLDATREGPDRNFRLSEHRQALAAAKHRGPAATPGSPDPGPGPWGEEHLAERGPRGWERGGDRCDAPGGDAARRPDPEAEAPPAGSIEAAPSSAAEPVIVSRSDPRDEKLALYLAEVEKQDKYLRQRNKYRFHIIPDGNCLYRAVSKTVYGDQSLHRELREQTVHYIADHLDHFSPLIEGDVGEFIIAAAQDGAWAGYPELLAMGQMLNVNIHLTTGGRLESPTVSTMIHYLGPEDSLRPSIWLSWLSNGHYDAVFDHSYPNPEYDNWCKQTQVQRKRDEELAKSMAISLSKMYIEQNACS
Assay: affinity purification with mass spectrometry; IP of OTUD1 from sonicated cell lysate (IP lysis buffer), 3 ug antibody overnight at 4 °C, Protein A/G magnetic beads, SDS-PAGE, Coomassie staining, MS; cells and antibody not stated

B1: SLC25A11 (found by MS in the OTUD1 immunoprecipitate) (protein, UniProt Q02978 1-314)
chain: MAATASAGAGGIDGKPRTSPKSVKFLFGGLAGMGATVFVQPLDLVKNRMQLSGEGAKTREYKTSFHALTSILKAEGLRGIYTGLSAGLLRQATYTTTRLGIYTVLFERLTGADGTPPGFLLKAVIGMTAGATGAFVGTPAEVALIRMTADGRLPADQRRGYKNVFNALIRITREEGVLTLWRGCIPTMARAVVVNAAQLASYSQSKQFLLDSGYFSDNILCHFCASMISGLVTTAASMPVDIAKTRIQNMRMIDGKPEYKNGLDVLFKVVRYEGFFSLWKGFTPYYARLGPHTVLTFIFLEQMNKAYKRLFLSG
- binding: binds

These are yes or no findings as the source states them, for the method shown. Binding seen in cells or lysates may run through a third protein. These calls come from enrichment with a bait or labelling near it, and not all partners need be listed.
